These are yes or no findings as the source states them, for the method shown. Binding seen in cells or lysates may run through a third protein. Some entries that bind do so weakly or less than the wild type.
T1: Profilin 3 (mouse (endogenous in testis)) (UniProt Q9DAD6)
T1 sequence: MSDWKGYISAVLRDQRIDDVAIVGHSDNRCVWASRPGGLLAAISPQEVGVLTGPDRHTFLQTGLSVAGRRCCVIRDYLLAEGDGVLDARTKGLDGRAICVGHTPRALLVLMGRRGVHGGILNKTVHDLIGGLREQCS

T2: TRIM27 (mouse (endogenous in testis)) (UniProt Q62158)
T2 sequence: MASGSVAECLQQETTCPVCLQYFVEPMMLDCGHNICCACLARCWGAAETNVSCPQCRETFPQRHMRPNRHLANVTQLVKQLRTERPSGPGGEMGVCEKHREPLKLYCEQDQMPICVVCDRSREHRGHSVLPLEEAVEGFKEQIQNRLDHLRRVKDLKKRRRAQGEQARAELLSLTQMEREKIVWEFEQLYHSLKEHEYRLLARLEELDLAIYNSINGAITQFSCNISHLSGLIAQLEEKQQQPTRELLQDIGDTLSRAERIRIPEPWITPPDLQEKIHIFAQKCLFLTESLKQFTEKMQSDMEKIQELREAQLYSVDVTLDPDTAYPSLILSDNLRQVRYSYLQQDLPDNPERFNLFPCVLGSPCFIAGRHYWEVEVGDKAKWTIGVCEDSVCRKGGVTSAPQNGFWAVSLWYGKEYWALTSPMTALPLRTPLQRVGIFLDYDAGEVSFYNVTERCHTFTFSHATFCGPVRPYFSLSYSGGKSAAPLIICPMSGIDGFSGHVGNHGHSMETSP

B1: TRIM27 (protein, UniProt Q62158 1-513)
chain: T2 sequence
B2: Profilin 3 (protein, UniProt Q9DAD6 1-137)
chain: T1 sequence

Key:
[1] = biological target: T1, Profilin 3 (mouse (endogenous in testis)); assay: co-IP; whole adult testis lysate in RIPA buffer, sonicated; IP with anti-PFN3 or anti-TRIM27 antibody on Dynabeads M-280 Sheep Anti-Rabbit IgG; eluate on silver-stained SDS-PAGE and immunoblot
[2] = biological target: T2, TRIM27 (mouse (endogenous in testis)); assay: as above

| Binder | binding [1] | binding [2] |
| --- | --- | --- |
| B1 | binds | – |
| B2 | – | binds |
